Laboratory results published in patent publication US20150023989A1, “NEW ANTIBODY DRUG CONJUGATES (ADCS) AND THE USE THEREOF” (SEATTLE GENETICS, INC., priority 2011, published 2015).
Where a name gives a salt, the structure may show the parent alone. At least one compound was matched to its structure with a doubt left. Where a SMILES comes first, the peptide text is derived from it. [ ]: non-standard residue; d: D form. The star is where a group is joined. X1 = CC(C)[C@@H](C(=O)*)N(C)CCCCCC(=O)NCCCC[C@H](N)C(=O)O; Dolaproine = CO[C@@H]([C@@H]1CCCN1)[C@@H](C)C(=O)O; Dil = CC[C@H](C)[C@H](NC)[C@@H](CC(=O)O)OC; Oxazinan2yl(1,2) = C1CCN(*)OC1

System: tubulin
Experiment: Fluorescence-based microtubule polymerisation assay
Assay type: biochemical
Settings: rate at 1 μM MMAF set at 100%
Method: Tubulin polymerization was investigated using the “Fluorescence-based Microtubule Polymerisation Assay Kit” from Cytoskeleton (Denver, Colo., USA; order number: BK011). With this assay, GTP is added to unpolymerized tubulin, allowing polymerization to take place spontaneously. The assay is based on the binding of the fluorophore 4′,6-diamidino-2-phenylindole (DAPI) to tubulin. Free and bound DAPI can be differentiated on the basis of different emission spectra.
In addition to the buffer control, paclitaxel, with a polymerization-increasing effect, and vinblastin, with a polymerization inhibiting effect, were run additionally as assay controls. Measurement was carried out using 96-well plates with a half base area. The kinetics of the tubulin polymerization were monitored in a Fluorimeter at 37° C. for 1 hour. The excitation wavelength was 355 nm, and emission was monitored at 460 nm. For the region of linear increase within the first 10 minutes, a calculation was made of the change in fluorescence per minute (ΔF/min), which represents the polymerization rate of the microtubuli. The potency of the test substances was quantified on the basis of their respective reduction of the polymerization rate. Table 6 below gives data for the influence of representative working examples on tubulin polymerization.

| Compound | Tubulin polymerization in the presence of toxophore (toxophore 1 μM) | Tubulin polymerization in the presence of toxophore (toxophore 10 μM) |
| --- | --- | --- |
| CC[C@H](C)[C@@H]([C@@H](CC(=O)N1CCC[C@H]1[C@H](OC)[C@@H](C)C(=O)N[C@@H](Cc1ccc(O)cc1)C(=O)N1CCCCO1)OC)N(C)C(=O)[C@@H](NC(=O)[C@H](C(C)C)N(C)CCCCCC(=O)NCCCC[C@H](N)C(=O)O)C(C)C [Example 36, N-(6-{[(5S)-5-Amino-5-carboxypentyl]amino}-6-oxohexyl)-N-methyl-L-valyl-N-[(3R,4S,5S)-1-{(2S)-2-[(1R,2R)-3-{[(2S)-3-(4-hydroxyphenyl)-1-(1,2-oxazinan-2-yl)-1-oxopropan-2-yl]amino}-1-methoxy-2-methyl-3-oxopropyl]pyrrolidin-1-yl}-3-methoxy-5-methyl-1-oxoheptan-4-yl]-N-methyl-L-valinamide trifluoroacetate] (X1-V[Dil][Dolaproine]Y-{Oxazinan2yl(1,2)}) | 88% | 21% |
| CC[C@H](C)[C@@H]([C@@H](CC(=O)N1CCC[C@H]1[C@H](OC)[C@@H](C)C(=O)N[C@@H](Cc1ccc(O)cc1)C(=O)O)OC)N(C)C(=O)[C@@H](NC(=O)[C@H](C(C)C)N(C)CCCCCC(=O)NCCCC[C@H](N)C(=O)O)C(C)C [Example 37, N-(6-{[(5S)-5-Amino-5-carboxypentyl]amino}-6-oxohexyl)-N-methyl-L-valyl-N-[(3R,4S,5S)-1-{(2S)-2-[(1R,2R)-3-{[(1S)-1-carboxy-2-(4-hydroxyphenyl)ethyl]amino}-1-methoxy-2-methyl-3-oxopropyl]pyrrolidin-1-yl}-3-methoxy-5-methyl-1-oxoheptan-4-yl]-N-methyl-L-valinamide trifluoroacetate] (X1-V[Dil][Dolaproine]Y-OH) | 90% | 17% |
